Assay [1] concerns the target T1, Recombinant human serum amyloid A isoform 1.1 (human), P0DJI8.
T1 chain: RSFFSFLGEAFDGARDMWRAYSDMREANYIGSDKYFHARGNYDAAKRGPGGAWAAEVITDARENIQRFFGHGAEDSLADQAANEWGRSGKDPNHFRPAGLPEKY
The assay is described as follows: native gel or EMSA; lipid-free SAA on non-denaturing PAGE, Novex 4-20% Tris-glycine gels, 6 ug protein per lane, Tris-glycine buffer; both purified. The settings on record: remark: other sources report otherwise. (In general: A gel shift assay detects complexes by their altered migration in electrophoresis.)

Sequences of proteins named here, by UniProt entry; tags and fusion partners are left off. Residues count along the entry.
UniProt P04114, residues 28-4563: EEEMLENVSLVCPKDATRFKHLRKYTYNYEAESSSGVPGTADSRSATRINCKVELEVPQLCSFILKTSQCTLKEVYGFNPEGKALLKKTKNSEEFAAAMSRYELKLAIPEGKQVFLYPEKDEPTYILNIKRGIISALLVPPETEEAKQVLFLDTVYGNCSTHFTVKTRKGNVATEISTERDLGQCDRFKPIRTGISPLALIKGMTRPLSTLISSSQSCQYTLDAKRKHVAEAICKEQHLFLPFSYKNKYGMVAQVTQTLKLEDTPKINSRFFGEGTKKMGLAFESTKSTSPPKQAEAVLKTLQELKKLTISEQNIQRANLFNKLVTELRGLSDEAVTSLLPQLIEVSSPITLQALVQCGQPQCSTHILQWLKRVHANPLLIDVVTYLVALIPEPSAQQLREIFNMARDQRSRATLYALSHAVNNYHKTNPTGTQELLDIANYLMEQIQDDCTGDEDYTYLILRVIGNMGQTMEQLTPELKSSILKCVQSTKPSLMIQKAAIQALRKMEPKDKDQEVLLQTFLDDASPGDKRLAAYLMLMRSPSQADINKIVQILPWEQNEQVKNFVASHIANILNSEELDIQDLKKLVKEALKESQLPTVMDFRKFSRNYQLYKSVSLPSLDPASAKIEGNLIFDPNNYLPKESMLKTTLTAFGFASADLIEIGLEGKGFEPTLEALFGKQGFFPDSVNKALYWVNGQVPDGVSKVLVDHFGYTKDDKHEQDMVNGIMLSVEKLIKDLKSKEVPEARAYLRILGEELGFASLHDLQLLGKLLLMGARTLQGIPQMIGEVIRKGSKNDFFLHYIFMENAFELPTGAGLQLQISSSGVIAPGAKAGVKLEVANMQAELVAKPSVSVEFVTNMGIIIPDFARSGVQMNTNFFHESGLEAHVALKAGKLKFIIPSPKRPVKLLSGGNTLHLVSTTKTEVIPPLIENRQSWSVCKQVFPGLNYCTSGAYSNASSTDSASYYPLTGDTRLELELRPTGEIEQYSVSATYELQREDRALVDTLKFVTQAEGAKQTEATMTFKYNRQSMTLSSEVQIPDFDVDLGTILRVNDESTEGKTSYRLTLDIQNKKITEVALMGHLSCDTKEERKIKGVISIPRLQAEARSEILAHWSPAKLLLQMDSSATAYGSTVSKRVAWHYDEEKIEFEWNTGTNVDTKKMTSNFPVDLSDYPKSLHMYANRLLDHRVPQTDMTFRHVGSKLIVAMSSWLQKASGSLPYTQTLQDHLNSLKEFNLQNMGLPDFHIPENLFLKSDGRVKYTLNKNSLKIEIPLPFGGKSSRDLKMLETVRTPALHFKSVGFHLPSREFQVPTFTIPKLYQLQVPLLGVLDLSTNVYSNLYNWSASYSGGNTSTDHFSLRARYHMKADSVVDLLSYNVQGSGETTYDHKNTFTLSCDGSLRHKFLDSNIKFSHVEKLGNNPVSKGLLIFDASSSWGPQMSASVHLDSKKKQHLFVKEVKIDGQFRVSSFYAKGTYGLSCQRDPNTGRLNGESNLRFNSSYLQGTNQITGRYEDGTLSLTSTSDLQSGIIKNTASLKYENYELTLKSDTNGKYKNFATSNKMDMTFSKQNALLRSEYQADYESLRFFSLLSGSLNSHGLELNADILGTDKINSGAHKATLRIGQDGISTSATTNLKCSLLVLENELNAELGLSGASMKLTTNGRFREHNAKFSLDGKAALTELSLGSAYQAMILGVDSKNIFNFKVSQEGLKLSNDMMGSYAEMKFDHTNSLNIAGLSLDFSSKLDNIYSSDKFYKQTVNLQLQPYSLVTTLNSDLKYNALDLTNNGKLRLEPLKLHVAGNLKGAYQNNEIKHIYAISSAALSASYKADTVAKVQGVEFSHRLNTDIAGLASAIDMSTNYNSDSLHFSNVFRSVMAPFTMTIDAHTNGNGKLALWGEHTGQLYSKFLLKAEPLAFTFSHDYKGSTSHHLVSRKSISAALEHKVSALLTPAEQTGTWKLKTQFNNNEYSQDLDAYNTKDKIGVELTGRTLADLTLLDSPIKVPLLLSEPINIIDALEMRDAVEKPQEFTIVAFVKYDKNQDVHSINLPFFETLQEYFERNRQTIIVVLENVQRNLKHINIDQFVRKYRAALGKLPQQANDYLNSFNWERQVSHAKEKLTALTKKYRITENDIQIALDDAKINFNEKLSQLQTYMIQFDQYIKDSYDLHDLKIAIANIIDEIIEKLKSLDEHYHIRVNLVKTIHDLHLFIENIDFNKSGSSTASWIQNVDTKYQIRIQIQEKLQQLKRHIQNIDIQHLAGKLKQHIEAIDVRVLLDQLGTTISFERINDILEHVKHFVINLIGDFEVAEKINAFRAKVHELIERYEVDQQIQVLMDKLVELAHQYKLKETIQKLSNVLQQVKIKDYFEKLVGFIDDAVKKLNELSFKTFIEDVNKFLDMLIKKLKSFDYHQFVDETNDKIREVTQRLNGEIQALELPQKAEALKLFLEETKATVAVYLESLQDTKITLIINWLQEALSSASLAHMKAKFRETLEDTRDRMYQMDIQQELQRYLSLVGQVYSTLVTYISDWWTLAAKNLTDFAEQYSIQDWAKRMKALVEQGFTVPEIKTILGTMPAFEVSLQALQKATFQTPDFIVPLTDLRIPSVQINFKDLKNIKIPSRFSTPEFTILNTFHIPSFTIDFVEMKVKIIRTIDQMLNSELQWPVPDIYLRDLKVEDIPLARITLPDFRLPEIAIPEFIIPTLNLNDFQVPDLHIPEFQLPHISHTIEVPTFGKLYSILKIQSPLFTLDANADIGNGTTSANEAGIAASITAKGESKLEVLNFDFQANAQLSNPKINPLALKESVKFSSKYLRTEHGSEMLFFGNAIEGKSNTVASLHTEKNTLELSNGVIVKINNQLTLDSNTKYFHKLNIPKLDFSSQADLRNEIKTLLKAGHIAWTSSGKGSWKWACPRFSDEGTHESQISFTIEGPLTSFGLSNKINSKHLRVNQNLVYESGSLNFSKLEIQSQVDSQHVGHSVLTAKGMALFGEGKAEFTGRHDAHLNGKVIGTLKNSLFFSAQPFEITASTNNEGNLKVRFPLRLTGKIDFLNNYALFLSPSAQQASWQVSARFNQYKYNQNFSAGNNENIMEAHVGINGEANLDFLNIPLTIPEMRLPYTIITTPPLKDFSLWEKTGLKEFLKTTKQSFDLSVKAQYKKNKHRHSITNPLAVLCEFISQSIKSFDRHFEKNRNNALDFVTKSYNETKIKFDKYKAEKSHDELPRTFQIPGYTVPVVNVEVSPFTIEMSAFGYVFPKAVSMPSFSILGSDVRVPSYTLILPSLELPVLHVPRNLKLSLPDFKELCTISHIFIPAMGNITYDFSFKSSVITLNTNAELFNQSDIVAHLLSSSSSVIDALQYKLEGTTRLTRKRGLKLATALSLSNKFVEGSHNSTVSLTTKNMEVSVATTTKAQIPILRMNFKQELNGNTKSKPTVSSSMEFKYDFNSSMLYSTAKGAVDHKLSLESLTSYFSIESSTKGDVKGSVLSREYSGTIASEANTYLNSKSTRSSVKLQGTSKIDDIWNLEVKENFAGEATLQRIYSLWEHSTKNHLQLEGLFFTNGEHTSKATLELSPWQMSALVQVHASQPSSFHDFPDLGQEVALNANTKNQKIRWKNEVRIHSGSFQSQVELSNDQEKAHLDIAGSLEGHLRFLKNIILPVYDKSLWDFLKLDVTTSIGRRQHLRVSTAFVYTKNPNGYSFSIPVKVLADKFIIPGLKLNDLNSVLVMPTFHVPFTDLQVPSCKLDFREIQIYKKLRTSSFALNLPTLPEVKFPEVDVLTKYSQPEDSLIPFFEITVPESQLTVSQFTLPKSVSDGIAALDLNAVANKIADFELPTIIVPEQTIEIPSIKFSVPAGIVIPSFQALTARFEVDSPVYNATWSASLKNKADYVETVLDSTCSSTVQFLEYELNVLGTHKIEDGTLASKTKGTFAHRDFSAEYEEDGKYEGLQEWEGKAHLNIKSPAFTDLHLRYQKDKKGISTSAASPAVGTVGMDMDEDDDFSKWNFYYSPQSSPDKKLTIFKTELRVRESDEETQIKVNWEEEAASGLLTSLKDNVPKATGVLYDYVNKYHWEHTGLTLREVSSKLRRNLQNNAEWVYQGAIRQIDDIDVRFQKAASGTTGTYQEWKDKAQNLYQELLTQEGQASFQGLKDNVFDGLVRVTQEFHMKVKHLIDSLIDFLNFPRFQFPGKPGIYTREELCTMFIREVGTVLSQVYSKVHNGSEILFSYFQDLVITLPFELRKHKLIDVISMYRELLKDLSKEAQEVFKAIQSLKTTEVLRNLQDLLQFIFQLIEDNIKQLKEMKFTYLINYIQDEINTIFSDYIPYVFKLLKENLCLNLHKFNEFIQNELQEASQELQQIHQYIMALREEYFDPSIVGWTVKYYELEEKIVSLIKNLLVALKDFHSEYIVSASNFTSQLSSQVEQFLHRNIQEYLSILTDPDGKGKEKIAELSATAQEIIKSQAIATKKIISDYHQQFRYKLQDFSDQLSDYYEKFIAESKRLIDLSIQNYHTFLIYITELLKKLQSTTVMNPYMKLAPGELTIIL

In assay [2] the target is apoB of human plasma LDL (human (endogenous in plasma LDL)) (UniProt P04114). In words: native gel or EMSA; hSAA1.1 mixed with human plasma LDL at 1:1 weight ratio of SAA to apoB; non-denaturing PAGE; only the binder purified.

Results are given in words; binding and its absence hold for the method and conditions named. Some binding calls cover weakened binding; strength is not graded here.

B1: Recombinant human serum amyloid A isoform 1.1, P0DJI8 19-122 (protein)
chain: RSFFSFLGEAFDGARDMWRAYSDMREANYIGSDKYFHARGNYDAAKRGPGGAWAAEVITDARENIQRFFGHGAEDSLADQAANEWGRSGKDPNHFRPAGLPEKY
Consider B1, for which, in assay [1], the binding result is listed as “binds”.

B2: Recombinant human serum amyloid A isoform 1.1 (protein, UniProt P0DJI8 19-122)
chain: RSFFSFLGEAFDGARDMWRAYSDMREANYIGSDKYFHARGNYDAAKRGPGGAWAAEVITDARENIQRFFGHGAEDSLADQAANEWGRSGKDPNHFRPAGLPEKY
In the case of B2, the binding result in assay [2] is on record as “no binding”.

The values are drawn from paper PMC6557629.
